Measurements published in PubChem BioAssay AID1259415 (National Center for Advancing Translational Sciences (NCATS), 2018).
The campaign covered roughly 410,000 compounds. About 18,000 (4.4%) were called active. This list was built around the results that the source calls inconclusive (neither active nor inactive); the mix of calls is not that of the screen. Rule as the data show it: active = activity change below about -60%; inconclusive = no clear call, values can overlap the other calls; inactive = above about -39%. Some compounds were tested as several samples or in several runs, with calls that do not always agree.

Assay: qHTS Assay for inhibitors of the human cytomegalovirus (HCMV)
Settings: HFF cells, HCMV-luciferase reporter, 72 h; at 57.5 µM; active compounds read low
In short: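 Two compound doses tested in HFFs infected with HCMV-luciferase, MOI 1 PFU/cell, 72 h at 37C. Lysate luminescence read with OneGlo; data normalized against buffer-only and 10uM Salinomycin inhibitor controls.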
% is scaled to controls: 0 for no effect and ±100 for the full control effect.

SMILES | activity change, negative = inhibition
COc1cccc(CN2CCN(Cc3c(C)nn(C(C)C)c3C)CC2CCO)c1 (stereo unspecified) | inactive: -35.6%
CC(=O)N1CCc2cc(S(=O)(=O)CCC(=O)N(C)Cc3ccco3)ccc21 | inconclusive: -40.1%
O=C(Nc1nc(=O)c2ccccc2s1)c1ccc(F)cc1 | inconclusive: -45.3%
CCOC(=O)/C(=N/O)C1=NC(C)(C)Cc2cc(C)c(C)cc21 | inconclusive: -47%
COc1ccc(S(=O)(=O)Nc2ccccc2OC)cc1NC(=O)Cc1cccs1 | inconclusive: -48.7%
c1ccc2sc(C3CCN(Cc4nnnn4Cc4ccc5c(c4)OCO5)CC3)nc2c1 | inconclusive: -47.3%
CSCCNC(=O)c1ccc(OC2CCN(CCc3ccccc3)CC2)cc1 | inactive: -21.8%
CCNC(=S)Nc1cccc(F)c1C | inactive: 36.2%
CC(=O)Nc1ccc(NS(=O)(=O)c2c(C(=O)N3CCC(C)CC3)c(C)n(C)c2C)cc1 | inconclusive: -52.9%
CCn1cc(C(=O)NCc2ccco2)c(=O)c2cc(S(=O)(=O)N3CCc4ccccc4C3)ccc21 | inactive: 1.45%
CCOC(=O)c1c(C)[nH]c(C)c1S(=O)(=O)N1CCOCC1 | inconclusive: -44.2%
CCOC(=O)CCNC(=O)N1CCCC(C(=O)c2cc(C)c(OC)c(C)c2)C1 (stereo unspecified) | inactive: 45.6%
Cc1cccc(NC(=O)CSc2ccc(-c3ccccn3)nn2)c1 | active: -105%
CSc1scc2c1-c1nc(SCC(=O)C(C)(C)C)ncc1CC2 | inconclusive: -40.2%
CCCCSc1nc2sc3c(c2c(=O)n1-c1ccc(OC)cc1)CCN(C)C3 | inconclusive: -51.7%
CCOC(=O)c1ccc(N2C(=O)c3n[nH]c(-c4ccco4)c3C2c2ccc(C)cc2)cc1 (stereo unspecified) | active: -103%
O=C(COc1ncnc2sccc12)Nc1ccc(F)cc1F | inconclusive: -40.1%
O=C(CCNC(=O)c1ccc([N+](=O)[O-])cc1)N/N=C/c1ccc(F)cc1 | inconclusive: -42.2%
COc1ccc2[nH]c3c(c2c1)CCN1C(=O)C(CC(=O)NCCC2=CCCCC2)C[C@H](C(=O)N(C(C)C)C(C)C)[C@@]31C (stereo partly specified) | inconclusive: -59.2%

Grouped by structure: those above containing a furan ring, fused or not (three)
SMILES | activity change, negative = inhibition
CC(=O)N1CCc2cc(S(=O)(=O)CCC(=O)N(C)Cc3ccco3)ccc21 | inconclusive: -40.1%
CCn1cc(C(=O)NCc2ccco2)c(=O)c2cc(S(=O)(=O)N3CCc4ccccc4C3)ccc21 | inactive: 1.45%
CCOC(=O)c1ccc(N2C(=O)c3n[nH]c(-c4ccco4)c3C2c2ccc(C)cc2)cc1 (stereo unspecified) | active: -103%

Continuation.

SMILES | activity change, negative = inhibition
Cc1cc(C)c(/C=N/NC(N)=O)c(C)c1/C=N/NC(N)=O | inconclusive: -44.7%
O=C(CSc1ccc(-c2ccco2)nn1)c1ccccc1 | inactive: 5.4%
CCNC(=O)C[C@@H]1CC[C@H]2[C@@H](COC[C@H](O)CN2C(=O)C2CC2)O1 | inactive: -12.1%
Cn1c(=O)c2[nH]c(CCCCCCCCc3nc4ccccc4[nH]3)nc2n(C)c1=O | active: -91.2%
Cc1cccc(Nc2nnc(-c3ccc(C(=O)N4C[C@H]5C[C@H](C4)c4cccc(=O)n4C5)cc3)c3ccccc23)c1 | inconclusive: -40.4%
CC(SC1=NCCS1)C(=O)Nc1nnc(-c2ccc(Cl)cc2)s1 (stereo unspecified) | inconclusive: -58.1%
O=C(Nc1ccc(S(=O)(=O)N2CCOCC2)cc1)C1CCN(S(=O)(=O)c2ccc(F)cc2)CC1 | active: -65.8%
Cc1ccc(C)c(CN2CCC(CNC(=O)Nc3ccc(Br)cc3F)CC2)c1 | active: -78.5%
COc1cccc(-c2cnc3c(NC=O)cc(-c4ccc(S(C)(=O)=O)cc4)cn23)c1 | inconclusive: -51.5%
Cn1ccc2cc3c(cc21)CCN3C(=O)Nc1cccnc1 | inactive: 77.6%
Nc1nnc(CC(=O)N/N=C/c2ccc(-c3ccc(F)cc3)o2)s1 | inconclusive: -55.8%
C[N+]1(CCCCSc2ccc(O)cc2)CCCCC1 | inconclusive: -46.1%
CN(c1ccccc1)c1ccc(/C=N/NC(=O)CC#N)cc1 | inconclusive: -43.7%
COc1ccc(C2CC(c3cccs3)=NN2C(=O)CSC2=NCCS2)cc1 (stereo unspecified) | inconclusive: -53.5%
CC(C)(C)OC(=O)NCCCCCNC(=O)c1[nH]cnc1C(=O)Nc1ccc(Cl)cc1 | inactive: -39%
CCN(CC)c1ccc(-n2c(C)cc(C=O)c2C)cc1 | inconclusive: -55.7%
CCS(=O)(=O)c1ncc(Cl)c(C(=O)Nc2ccc(C)cc2)n1 | active: -100%
COc1ccc(/C=N/NC(=O)Nc2ccc3nsnc3c2)c(OC)c1 | inconclusive: -57.5%
COc1cccc(/C=N/Nc2ncnc3c2ncn3Cc2ccccc2)c1O | active: -98%

SMILES | activity change, negative = inhibition
Cc1ccc(C)c2c1cc(C)c1nnc(SCC(=O)c3cccs3)n12 | inconclusive: -54.5%
O=C(Cc1ccc(F)cc1)NC(Cc1c[nH]c2ccccc12)C(=O)O (stereo unspecified) | active: -62.3%
CCc1ccc(N2CC(C(=O)NC3CC3)CC2=O)cc1 (stereo unspecified) | inconclusive: -42.6%
Cc1cccnc1NC(=O)C1CCCN1S(=O)(=O)c1ccc(Cl)cc1 (stereo unspecified) | inactive: 27.8%
Brc1cccc(-c2nc(-c3ccncc3)no2)c1 | inactive: 17.8%
Cc1ccc2sc3ccc(NC(=O)c4ccccc4Cl)cc3c(=O)c2c1 | active: -88.7%
CCC1OC(C)Cc2[nH][nH]c(=O)c21 (stereo unspecified) | inactive: -3.47%
C=CCOC(=O)C1=C[C@@H](c2cn(C(C)=O)c3ccccc23)C[C@@H](OCc2ccc(CO)cc2)O1 | inactive: 0.425%
COc1ccc(C(=O)CCS(=O)(=O)c2ccc(F)cc2)cc1OC | inconclusive: -60%
Cc1cc(C(=O)Nc2ccc(Br)cc2F)n(-c2ccccc2)n1 | inconclusive: -49.5%
O=C(CSC1=NCCS1)N1CCN(c2ccccc2)CC1 | inconclusive: -55.1%
CC(C)c1ccccc1NC(=O)c1cccnc1 | inactive: 18%
COc1ccc(C(C#N)=Cc2ccc(N(C)CCC#N)cc2)cc1 | inactive: 37.9%
Cc1ccc(S(=O)(=O)N(C)CC(=O)Nc2ccccc2N2CCCC2)cc1 | inconclusive: -40.7%
O=c1oc2cc(O)ccc2cc1-c1nc2c(s1)CCc1ccccc1-2 | inactive: 19.3%
CC1CCc2c(sc3nc(C4CC4)nc(N4CCN(C(=O)c5ccco5)CC4)c23)C1 (stereo unspecified) | active: -85.8%
CCC(=O)NNc1nc2c(F)cc(F)cc2s1 | inconclusive: -41.4%
CC(=O)Nc1ccc(NC(=O)c2nc(S(=O)(=O)Cc3cccc(C)c3)ncc2Cl)cc1 | active: -101%
